Laboratory results taken from the supplement of paper PMC10849652.
Some of the results follow.

Chains of the proteins cited; added tags and fusions are not shown. Lines headed by an entry give the natural chain unless they say otherwise; changes in a name come on top.
UniProt Q9UG63: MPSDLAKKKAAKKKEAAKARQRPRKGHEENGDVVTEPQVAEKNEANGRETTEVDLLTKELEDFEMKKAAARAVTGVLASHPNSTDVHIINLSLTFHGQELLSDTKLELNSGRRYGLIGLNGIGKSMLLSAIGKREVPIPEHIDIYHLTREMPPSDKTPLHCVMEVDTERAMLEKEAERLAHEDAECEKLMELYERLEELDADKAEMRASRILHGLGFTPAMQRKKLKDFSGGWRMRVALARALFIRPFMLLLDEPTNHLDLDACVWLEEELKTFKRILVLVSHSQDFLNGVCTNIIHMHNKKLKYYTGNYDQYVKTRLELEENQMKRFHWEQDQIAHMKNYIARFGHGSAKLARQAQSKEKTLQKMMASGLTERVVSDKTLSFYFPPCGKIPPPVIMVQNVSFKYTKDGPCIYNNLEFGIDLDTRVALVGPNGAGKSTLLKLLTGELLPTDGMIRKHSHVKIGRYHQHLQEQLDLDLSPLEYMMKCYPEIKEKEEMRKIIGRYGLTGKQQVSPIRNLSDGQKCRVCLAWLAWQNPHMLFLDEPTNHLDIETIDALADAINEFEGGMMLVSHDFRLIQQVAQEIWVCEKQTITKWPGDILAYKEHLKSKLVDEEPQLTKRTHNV
UniProt Q8IZP0: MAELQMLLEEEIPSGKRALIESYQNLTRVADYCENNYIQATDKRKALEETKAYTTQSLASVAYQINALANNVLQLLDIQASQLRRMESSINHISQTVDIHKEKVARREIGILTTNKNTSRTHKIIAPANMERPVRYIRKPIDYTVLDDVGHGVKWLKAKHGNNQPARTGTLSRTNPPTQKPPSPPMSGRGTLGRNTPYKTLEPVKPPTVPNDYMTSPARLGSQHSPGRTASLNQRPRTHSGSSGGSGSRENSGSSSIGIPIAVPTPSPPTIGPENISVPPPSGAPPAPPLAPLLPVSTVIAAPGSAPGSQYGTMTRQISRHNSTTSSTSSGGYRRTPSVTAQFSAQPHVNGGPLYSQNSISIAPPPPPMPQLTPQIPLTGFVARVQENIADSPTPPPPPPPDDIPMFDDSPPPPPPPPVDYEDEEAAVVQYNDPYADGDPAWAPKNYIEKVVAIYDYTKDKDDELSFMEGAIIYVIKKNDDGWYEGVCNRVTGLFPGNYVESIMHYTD
UniProt P09110: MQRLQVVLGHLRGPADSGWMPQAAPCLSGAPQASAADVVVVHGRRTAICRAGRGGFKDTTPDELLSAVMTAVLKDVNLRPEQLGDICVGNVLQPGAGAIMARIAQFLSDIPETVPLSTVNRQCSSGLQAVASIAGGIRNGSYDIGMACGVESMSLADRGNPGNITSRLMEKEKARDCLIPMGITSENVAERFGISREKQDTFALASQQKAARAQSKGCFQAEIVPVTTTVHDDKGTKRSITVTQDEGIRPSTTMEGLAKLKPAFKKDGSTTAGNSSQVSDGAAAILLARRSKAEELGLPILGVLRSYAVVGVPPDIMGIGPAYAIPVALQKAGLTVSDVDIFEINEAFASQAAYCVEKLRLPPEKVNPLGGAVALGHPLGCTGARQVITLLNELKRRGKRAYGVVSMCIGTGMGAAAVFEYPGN
UniProt Q7Z6V5: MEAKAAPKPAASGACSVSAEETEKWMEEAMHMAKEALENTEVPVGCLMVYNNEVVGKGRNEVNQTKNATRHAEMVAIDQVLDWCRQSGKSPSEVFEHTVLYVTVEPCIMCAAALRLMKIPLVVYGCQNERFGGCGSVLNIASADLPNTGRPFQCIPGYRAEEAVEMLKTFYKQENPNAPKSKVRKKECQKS
UniProt P24666: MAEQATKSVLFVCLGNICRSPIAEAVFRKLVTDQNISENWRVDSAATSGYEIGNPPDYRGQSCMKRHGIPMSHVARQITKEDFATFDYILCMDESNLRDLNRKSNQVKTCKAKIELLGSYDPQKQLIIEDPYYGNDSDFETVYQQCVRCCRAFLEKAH
UniProt Q7L211: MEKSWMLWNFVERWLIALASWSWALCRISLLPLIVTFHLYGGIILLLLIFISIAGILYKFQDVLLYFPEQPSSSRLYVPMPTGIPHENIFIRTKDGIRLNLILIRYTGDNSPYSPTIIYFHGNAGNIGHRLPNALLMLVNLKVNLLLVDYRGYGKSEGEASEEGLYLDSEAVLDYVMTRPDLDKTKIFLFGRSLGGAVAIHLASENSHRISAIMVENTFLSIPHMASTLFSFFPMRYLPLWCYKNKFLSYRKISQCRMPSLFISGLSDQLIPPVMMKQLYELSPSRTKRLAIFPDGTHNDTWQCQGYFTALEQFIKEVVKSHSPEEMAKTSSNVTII
UniProt Q9BR61: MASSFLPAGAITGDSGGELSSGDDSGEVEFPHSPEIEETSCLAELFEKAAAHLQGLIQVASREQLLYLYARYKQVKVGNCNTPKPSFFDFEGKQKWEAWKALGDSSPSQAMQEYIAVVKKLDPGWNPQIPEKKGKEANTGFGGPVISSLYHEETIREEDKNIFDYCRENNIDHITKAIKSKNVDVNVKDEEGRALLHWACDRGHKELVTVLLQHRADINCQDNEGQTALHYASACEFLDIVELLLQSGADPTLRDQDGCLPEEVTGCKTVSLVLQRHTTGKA
UniProt Q9NUJ1: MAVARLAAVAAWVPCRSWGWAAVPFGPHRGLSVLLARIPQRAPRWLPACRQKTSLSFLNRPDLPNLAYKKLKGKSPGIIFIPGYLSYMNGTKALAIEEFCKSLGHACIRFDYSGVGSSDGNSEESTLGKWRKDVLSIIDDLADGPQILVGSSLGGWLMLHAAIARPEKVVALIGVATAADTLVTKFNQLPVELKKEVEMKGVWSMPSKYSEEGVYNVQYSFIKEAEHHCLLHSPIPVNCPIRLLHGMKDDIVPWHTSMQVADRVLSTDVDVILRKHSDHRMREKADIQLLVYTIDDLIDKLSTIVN

Columns and labels:
Experiment in all cases: log2 fold change, soluble protein after heating vs DMSO (PISA); higher = thermal stabilisation; K562 cells, 10 uM, 30 min; active = over 0.2 and 3.5 SD of the protein, either way, in both replicates (recomputed)
[1] = compound: CC[C@@H]1C(=O)N(C)c2cnc(Nc3ccc(C(=O)NC4CCN(C)CC4)cc3OC)nc2N1C1CCCC1
Method in brief: (§1)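 For each measurement, 10 μM compound was applied for 30 min to K562 cells at 2×10^6 cells/mL. Aliquots were heated for 3 min across 48°C-58°C, pooled, and extracted in PBS with 0.5% NP-40 at 4°C; the supernatant after 21,000xg for 90 min was soluble protein. This was quantified by TMTpro 16plex LC-MS/MS with channel sums equalised, and thermal stability was reported relative to control samples from duplicates, on a log2 fold-change scale.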

volasertib = compound: CC[C@@H]1C(=O)N(C)c2cnc(Nc3ccc(C(=O)N[C@H]4CC[C@H](N5CCN(CC6CC6)CC5)CC4)cc3OC)nc2N1C(C)C [volasertib]
Method in brief: as §1

[2] = compound: CC[C@H](C)N1C=C(C2=C(C=C(C=C21)C3=CN=C(C=C3)N4CCNCC4)C(=O)NCC5=C(C=C(NC5=O)C)C)C
Method in brief: as §1

epoxomicin = compound: CC[C@H](C)[C@@H](C(=O)N[C@@H]([C@@H](C)O)C(=O)N[C@@H](CC(C)C)C(=O)[C@]1(CO1)C)NC(=O)[C@H]([C@@H](C)CC)N(C)C(=O)C [epoxomicin]
Method in brief: as §1

[3] = compound: CCn1c(C(=O)N(C2CC2)C2CC2)cc2c3c(ncn3C)c(Nc3cc(C)n(C)n3)nc21
Method in brief: as §1

[4] = compound: CCn1cc(-c2ccnc3[nH]c(-c4cccc(CN(C)C)c4)cc23)c(-c2ccc(NC(=O)N(C)C)cc2)n1
Method in brief: as §1

[5] = compound: CN(C)CC(=O)Nc1ccc2[nH]c(=O)c3ccccc3c2c1
Method in brief: as §1

rosiglitazone = compound: CN(CCOC1=CC=C(C=C1)C[C@H]2C(=O)NC(=O)S2)C3=CC=CC=N3 (racemic) [rosiglitazone]
Method in brief: as §1

[6] = compound: CN1C2=C(C3=C1C(=O)N(N=C3)CC4=CC(=CC=C4)N)SC(=C2)S(=O)C
Method in brief: as §1

[7] = compound: CN1CCC(CNc2ccc3ncc(-c4cccc(OC(F)(F)F)c4)n3n2)CC1
Method in brief: as §1

saracatinib = compound: CN1CCN(CCOc2cc(OC3CCOCC3)c3c(Nc4c(Cl)ccc5c4OCO5)ncnc3c2)CC1 [saracatinib]
Method in brief: as §1

sotrastaurin = compound: CN1CCN(c2nc(C3=C(c4c[nH]c5ccccc45)C(=O)NC3=O)c3ccccc3n2)CC1 [sotrastaurin]
Method in brief: as §1

alvocidib = compound: CN1CC[C@H](c2c(O)cc(O)c3c(=O)cc(-c4ccccc4Cl)oc23)[C@H](O)C1 [alvocidib]
Method in brief: as §1

Tubastatin A = compound: CN1CCc2c(c3ccccc3n2Cc2ccc(C(=O)NO)cc2)C1 [Tubastatin A]
Method in brief: as §1

[8] = compound: CNC(=O)C1=CC=CC=C1NC2=NC(=NC=C2Cl)NC3=C(C=C(C=C3)N4CCOCC4)OC
Method in brief: as §1

defactinib = compound: CNC(=O)c1ccc(Nc2ncc(C(F)(F)F)c(NCc3nccnc3N(C)S(C)(=O)=O)n2)cc1 [defactinib]
Method in brief: as §1

rucaparib = compound: CNCc1ccc(-c2[nH]c3cc(F)cc4c3c2CCNC4=O)cc1 [rucaparib]
Method in brief: as §1

[9] = compound: CNc1nc(-c2ccc3c(N)n[nH]c3c2)cc(N2C[C@@H](C(=O)NC3CCCCC3)CC[C@H]2C)n1
Method in brief: as §1

encorafenib = compound: COC(=O)N[C@@H](C)CNc1nccc(-c2cn(C(C)C)nc2-c2cc(Cl)cc(NS(C)(=O)=O)c2F)n1 [encorafenib]
Method in brief: as §1

[10] = compound: COC(=O)[C@H](CCSC)NC(=O)C1=C(C=C(C=C1)NC[C@H](CS)N)C2=CC=CC=C2
Method in brief: as §1

Measured: log2 fold change

ABCF2 isoform 2 (UniProt Q9UG63)
inactive: [1] -0.003 | volasertib 0.082 | [2] -0.004 | epoxomicin 0.003 | [3] 0.007 | [4] -0.065 | [5] -0.003 | rosiglitazone 0.027 | [6] -0.029 | [7] -0.004 | saracatinib -0.007 | sotrastaurin 0.013 | alvocidib 0.018 | Tubastatin A -0.019 | [8] 0.012 | defactinib 0.031 | rucaparib 0.009 | [9] 0 | encorafenib -0.006 | [10] -0.018

ABI1 (UniProt Q8IZP0)
inactive: [1] 0.008 | volasertib -0.178 | [2] 0.059 | epoxomicin 0.005 | [3] -0.022 | [4] 0.125 | [5] 0.045 | rosiglitazone 0.01 | [6] -0.091 | [7] 0.012 | saracatinib -0.044 | sotrastaurin 0.027 | alvocidib -0.16 | Tubastatin A -0.033 | [8] 0.014 | defactinib -0.005 | rucaparib 0.037 | [9] -0.039 | encorafenib -0.022 | [10] -0.03

ACAA1 (UniProt P09110)
inactive: [1] 0.021 | volasertib 0.044 | [2] -0.024 | epoxomicin 0.008 | [3] 0.008 | [4] 0.001 | [5] -0.007 | rosiglitazone -0.01 | [6] -0.083 | [7] 0.068 | saracatinib 0.051 | sotrastaurin -0.025 | alvocidib -0.027 | Tubastatin A 0.011 | [8] 0.004 | defactinib -0.006 | rucaparib -0.013 | [9] -0.034 | encorafenib -0.028 | [10] -0.021

ADAT2 (UniProt Q7Z6V5)
inactive: [1] 0.037 | volasertib -0.004 | [2] 0.003 | epoxomicin 0.001 | [3] 0.002 | [4] -0.044 | [5] -0.008 | rosiglitazone 0.03 | [6] -0.148 | [7] 0.07 | saracatinib 0.079 | sotrastaurin 0.083 | alvocidib -0.002 | Tubastatin A -0.008 | [8] -0.04 | defactinib -0.032 | rucaparib -0.002 | [9] -0.077 | encorafenib -0.003 | [10] 0.012

ACP1 isoform 2 (UniProt P24666)
inactive: [1] 0.034 | volasertib 0.055 | [2] 0.063 | epoxomicin 0.012 | [4] -0.083 | [5] 0.05 | [6] 0.014 | [7] -0.07 | saracatinib -0.175 | sotrastaurin -0.11 | Tubastatin A 0.111 | [8] 0.038 | defactinib -0.047 | rucaparib 0.019 | [9] 0.059 | encorafenib 0.064 | [10] 0.024

ABHD13 (UniProt Q7L211)
inactive: [1] -0.048 | volasertib 0.043 | [2] -0.262 | epoxomicin 0.018 | [3] 0.049 | [4] -0.107 | [5] 0.066 | rosiglitazone 0.016 | [6] -0.039 | [7] -0.004 | saracatinib -0.007 | sotrastaurin 0.008 | Tubastatin A -0.085 | [8] 0.012 | defactinib 0.004 | rucaparib -0.154 | [9] 0.028 | encorafenib 0.046 | [10] -0.21

ACBD6 (UniProt Q9BR61)
active: volasertib -0.473
inactive: [1] -0.032 | [2] 0.103 | epoxomicin 0.05 | [4] -0.11 | [5] 0.141 | [6] -0.099 | [7] 0.046 | saracatinib -0.129 | sotrastaurin -0.115 | Tubastatin A 0.196 | [8] 0.067 | defactinib -0.112 | rucaparib -0.061 | [9] 0.006 | encorafenib 0.098 | [10] -0.047

ABHD10 (UniProt Q9NUJ1)
inactive: [1] 0.061 | volasertib 0.044 | [2] -0.042 | epoxomicin -0.021 | [3] 0.029 | [4] -0.006 | [5] -0.012 | rosiglitazone 0.012 | [6] -0.005 | [7] 0.048 | saracatinib 0.059 | sotrastaurin 0.065 | alvocidib 0.059 | Tubastatin A -0.014 | [8] 0.01 | defactinib 0.008 | rucaparib -0.025 | [9] -0.061 | encorafenib -0.031 | [10] 0.045
